Source: PMC5404846
Results are given in words; binding and its absence hold for the method and conditions named.

Experiments:
[1] = target: T1, MEDIATOR8 (Arabidopsis thaliana (Col-0 cDNA)) (UniProt Q4V3C1); test: two-hybrid; GAL4 DNA-binding domain baits (pDEST32) and GAL4 activation domain preys (pDEST22) co-transformed into S. cerevisiae MaV203; serial dilutions plated on SC-Leu-Trp and on SC-Leu-Trp-His with 12.5 mM 3-aminotriazole; repeated with separate transformations
T1 sequence: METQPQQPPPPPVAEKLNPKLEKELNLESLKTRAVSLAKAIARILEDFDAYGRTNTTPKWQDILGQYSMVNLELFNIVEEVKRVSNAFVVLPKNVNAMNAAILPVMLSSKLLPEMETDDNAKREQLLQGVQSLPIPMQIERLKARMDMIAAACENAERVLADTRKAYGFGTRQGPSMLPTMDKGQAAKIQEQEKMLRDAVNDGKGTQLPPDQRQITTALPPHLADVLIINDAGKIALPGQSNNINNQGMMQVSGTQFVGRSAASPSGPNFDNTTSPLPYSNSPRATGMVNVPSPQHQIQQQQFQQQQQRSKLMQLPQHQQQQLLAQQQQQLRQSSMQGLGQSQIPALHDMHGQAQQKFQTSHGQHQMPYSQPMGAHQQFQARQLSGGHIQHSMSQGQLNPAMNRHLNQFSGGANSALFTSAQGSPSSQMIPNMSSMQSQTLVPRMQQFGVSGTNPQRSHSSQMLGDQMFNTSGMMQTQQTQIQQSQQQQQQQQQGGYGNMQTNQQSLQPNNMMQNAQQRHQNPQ

[2] = target: T2, MEDIATOR21 (Arabidopsis thaliana (Col-0 cDNA)) (UniProt C0LU16); test: as above
T2 sequence: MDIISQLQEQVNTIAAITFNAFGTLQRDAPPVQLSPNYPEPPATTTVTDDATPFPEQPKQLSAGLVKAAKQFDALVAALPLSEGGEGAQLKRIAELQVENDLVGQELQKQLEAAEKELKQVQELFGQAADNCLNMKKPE

B1: MEDIATOR18 (protein, UniProt Q9SJZ6 1-219)
chain: MSMECVVQGIIETQHVEALEILLQGLCGVQRERLRVHELCLRSGPNLGVVSSEVRLLCDLDQPEPTWTVKHVGGAMRGAGADQISVLVRNMIESKVSKNALRMFYALGYKLDHELLKVGFAFHFQRTAHISVSVSSVNKMPKVHAIDEAVPVTPGMQIVDVTAPATSENYSEVAAAVSSFCEFLAPLVHLSKPSISTGVVPTAAAAAASLMSDGGGTTL
- binding [1]: no binding
- binding [2]: no binding
